Test results from patent publication US20090202565A1, “TORC POLYNUCLEOTIDES AND POLYPEPTIDES AND METHOD OF USE” (priority 2004, published 2009).
At least one compound was matched to its structure with a doubt left. Some entries share one result that the patent states for a list of compounds.

Assays:
CRE-driven luciferase = assay: CRE-dependent luciferase reporter in HeLa and HeLa::TORC1-eGFP cells; format: cell-based; conditions: 5 uM ionomycin, 10 uM PMA; 18 hours
Text: To determine the effect of TORC1 over-expression and localization on gene expression, CRE-dependent transcription is compared in untransfected HeLa cells and HeLa cells stably expressing TORC1-eGFP using a luciferase reporter containing a CRE-dependent promoter.

TORC1-eGFP = assay: TORC1 (FLAG-TORC1 / TORC1-eGFP) nuclear translocation in HeLa cells, fluorescence microscopy; format: cell-based, human; conditions: HeLa stable TORC1-eGFP; 1 uM ionomycin or 10 uM CPA; 1 hour
Method: Generation of stable TORC-eGFP cell lines. HeLa cells are transfected with pCMV-TORC1-eGFP and stable integrants are selected with 700 ug/ml geneticin. A single colony that expressed TORC1-eGFP is isolated and expanded (HhTORC1eGFP cells). […]
HeLa cells are transfected with FLAG-TORC1 (FIG. 1, panels A and B) or TORC1-eGFP (panels C and D). Cells are either untreated (panels A and C) or treated with 10 nM leptomycin-B (LMB), a fungal inhibitor of CRM1 mediated nuclear export of proteins, for 90 min (panels B and D). FLAG-tagged protein is visualized by immunofluorescence while eGFP-tagged proteins are directly visualized by fluorescence. […] Since a variety of signal transduction proteins are regulated by either nuclear export or stimulus induced import, the localization of TORC1 is examined after treatment with LMB. […]

| SMILES | larger increase in CRE-luciferase induction in HeLa::TORC1-eGFP cells versus naïve HeLa (CRE-driven luciferase) | accumulation of TORC1-eGFP in the nucleus in response to calcium (TORC1-eGFP) |
| --- | --- | --- |
| C[C@H](CCC(=O)O)C[C@H](C)C[C@H](C)C(=O)/C=C(\O)[C@H](C)C[C@H](C)C/C=C/[C@@H](C)[C@@H](O)[C@@H](C)[C@@H](O)C[C@@H]1CC[C@@](C)([C@H]2CC[C@@](C)([C@@H](C)O)O2)O1 [ionomycin] | greater than 10 fold | – |
| CC(=O)C1=C(O)[C@@H]2[C@H]3c4c[nH]c5cccc(c45)C[C@H]3C(C)(C)N2C1=O [CPA, cyclopiazonic acid] | – | potently induce accumulation of the TORC1-eGFP in the nucleus |
| CCCCCCCCCCCCCC(=O)O[C@@H]1[C@@H](C)[C@@]2(O)[C@@H](C=C(CO)C[C@]3(O)C(=O)C(C)=C[C@@H]23)[C@@H]2C(C)(C)[C@]12OC(C)=O [PMA, Phorbol 12-myristate 13-acetate] | greater than 10 fold | – |
